Experimental data reported in the supplement of paper PMC6078165.
The reference is the same well before dosing, and untreated signal decays as well.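 Labels refer to human fibroblasts, largely primary: uterine (C12385, HUF), lung (H6013), bone (Hs27A), adrenal (HADF), skin (WS1), plus mammary HMF and breast cancer-associated Hs343T. Cancer lines are basal-like or mesenchymal-like triple-negative breast cancer. The paper counts as hits responses shifting over 3x the replicate standard deviation. The tissue of the other fibroblasts is not given here.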

System: Hs578T
Assay: relative JC-1 red fluorescence (viability) vs pre-drug, coculture with fibroblast (fraction); higher = more viable cancer cells
Conditions: 0.1 µM
Protocol: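 JC-1 labelled TNBC cells cocultured 1:1 (1,500 cells each) with CellTrace Violet stained primary or stromal fibroblasts in 384-well plates in FluoroBrite medium, treated with one of 42 anticancer drugs at 0.1, 1, 10 or 100 uM. JC-1 red fluorescence (mitochondrial integrity in cancer cells only) was read by plate reader every 8 h for 72 h. Values are normalised to each well's pre-drug value. The stock of one drug was tenfold lower, so its dose labels may be too high.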

CO[C@@]12[C@H](COC(N)=O)C3=C(C(=O)C(C)=C(N)C3=O)N1C[C@@H]1N[C@@H]12 [Mitomycin C]
Conditions | relative JC-1 red fluorescence
8 h | 0.919
16 h | 0.834
24 h | 0.818
32 h | 0.797
40 h | 0.745
48 h | 0.722
56 h | 0.705
64 h | 0.669
72 h | 0.66

relative JC-1 red fluorescence
Conditions | 8 h | 16 h | 24 h | 32 h | 40 h | 48 h | 56 h | 64 h | 72 h
coculture fibroblast: C12385 | 0.8366 | 0.7562 | 0.7315 | 0.6276 | 0.5756 | 0.557 | 0.528 | 0.521 | 0.513
coculture fibroblast: H6013 | 0.883 | 0.816 | 0.752 | 0.717 | 0.665 | 0.636 | 0.602 | 0.579 | 0.535
coculture fibroblast: H6019 | 0.75 | 0.624 | 0.575 | 0.463 | 0.401 | 0.359 | 0.315 | 0.281 | 0.258
coculture fibroblast: H6076 | 0.909 | 0.8243 | 0.796 | 0.791 | 0.746 | 0.741 | 0.702 | 0.689 | 0.662
coculture fibroblast: H6231 | 0.9142 | 0.823 | 0.74 | 0.694 | 0.624 | 0.595 | 0.545 | 0.518 | 0.489
coculture fibroblast: HADF | 0.896 | 0.855 | 0.769 | 0.721 | 0.676 | 0.641 | 0.591 | 0.568 | 0.526
coculture fibroblast: HCFa | 0.867 | 0.789 | 0.723 | 0.683 | 0.614 | 0.586 | 0.549 | 0.52 | 0.479
coculture fibroblast: HCPF | 0.9075 | 0.8108 | 0.771 | 0.739 | 0.6865 | 0.66 | 0.63935 | 0.6012 | 0.574
coculture fibroblast: HHSteC | 0.932 | 0.835 | 0.81 | 0.79 | 0.75 | 0.732 | 0.709 | 0.694 | 0.656
coculture fibroblast: HMF | 0.9373 | 0.857 | 0.784 | 0.762 | 0.698 | 0.663 | 0.62 | 0.603 | 0.582
coculture fibroblast: HPFa | 0.9333 | 0.835 | 0.771 | 0.71 | 0.662 | 0.623 | 0.577 | 0.55 | 0.5
coculture fibroblast: HUF | 0.8797 | 0.76 | 0.73 | 0.625 | 0.567 | 0.534 | 0.501 | 0.488 | 0.471
coculture fibroblast: Hs27A | 0.882 | 0.809 | 0.775 | 0.7315 | 0.686 | 0.672 | 0.646 | 0.629 | 0.578
coculture fibroblast: Hs343T | 0.941 | 0.845 | 0.7631 | 0.74 | 0.662 | 0.623 | 0.5666 | 0.534 | 0.505
coculture fibroblast: WS1 | 0.803 | 0.68 | 0.6373 | 0.5617 | 0.5012 | 0.485 | 0.4455 | 0.4309 | 0.4222
